Experimental findings from PMC10611586 are described below.

No constants are given. Whether binding was seen depends on the method and setting. In cells and extracts the contact can be indirect. A yes stands for co-enrichment or nearness to the bait. Other partners may have been found. No binding means not detected with the bait.

For the experiment, the target named is HA–Fubi^C57A-VS (human) (UniProt P62861). The experiment in a line: affinity purification with mass spectrometry; HeLa lysate (1 mg protein) incubated with 5 µg HA-tagged VS probe for 1 h at 37 °C, compared with lysate pretreated with 10 mM IAA; covalent conjugates enriched on anti-HA affinity gel; label-free quantification; only the target purified.

“endogenous USP7 (from UniProt Q93009 1-1102) (enzyme)”: the binding entry was “no binding”.
